At least one structure is not confirmed: it was looked up by name or label, or the drawing left a doubt. Where a SMILES comes first, the peptide text is derived from it. Bridges are numbered along the chain shown (N, C = ends). [ ]: non-standard residue; d: D form. Trp(1-CH2COOH) = N[C@@H](Cc1cn(CC(=O)O)c2ccccc12)C(=O)O; Hyp = O=C(O)[C@@H]1C[C@@H](O)CN1; NMeNle = CCCC[C@H](NC)C(=O)O; NMeA = CN[C@@H](C)C(=O)O
Biological target: PD-L1 binding to PD-1 (Homo sapiens, UniProt Q9NZQ7)
Experiment: competitive PD-1:PD-L1 inhibition assay (HTRF PD1/PD-L1 binding assay)
Procedure: To modify DK221 for radiolabeling, a bifunctional chelator, e.g., NCS-MP-NODA, was conjugated to the free lysine amine to generate DK222. The NODA chelator was used for radiofluorination to produce [^18F]DK222, as well as a non-radioactive analog [^19F]DK222. (FIG. 1A, FIG. 10 and FIG. 11). A competitive PD-1:PD-L1 inhibition assay was performed to characterize binding affinity of the peptide analogs to PD-L1. […] [^18F]Fluoride-radiolabeling of peptides and small molecules by aluminum fluoride (AlF) method is gaining attention due to the ease of synthesis and the potential to retain the hydrophilicity of the binding moiety. McBride et al., 2010; Kumar et al., 2018. The radiolabeled analog, [^18F]DK222 was synthesized by AlF method in good radiochemical yields (34.85±1.7%, n=62), in vitro stability, and moderate specific activity of 284±56 mCi/μmol (10.51±2.07 GBq/μmol, n=25). […] (FIG. 12, FIG. 13 and FIG. 14).

Compound | inhibit PD1:PD-L1 interaction (protein-based assay) | IC50
CCCC[C@H]1C(=O)N(C)[C@@H](CCCC)C(=O)N[C@@H](CCCCN)C(=O)N[C@H](C(=O)NCC(N)=O)CSCC(=O)N[C@@H](Cc2ccc(O)cc2)C(=O)N(C)[C@@H](C)C(=O)N[C@@H](CC(N)=O)C(=O)N2CCC[C@H]2C(=O)N[C@@H](Cc2c[nH]cn2)C(=O)N[C@@H](CCC(=O)O)C(=O)N2C[C@H](O)C[C@H]2C(=O)N[C@@H](Cc2c[nH]c3ccccc23)C(=O)N[C@@H](CO)C(=O)N[C@@H](Cc2cn(CC(=O)O)c3ccccc23)C(=O)N1C [DK221, Cyclo-(-Ac-Tyr-NMeAla-Asn-Pro-His-Glu-Hyp-Trp-Ser-Trp(Carboxymethyl)-NMeNle-NMeNle-Lys-Cys-)-Gly-NH2, reference compound] ({CH2CO}-Y[NMeA]NPHE[Hyp]WS[Trp(1-CH2COOH)][NMeNle][NMeNle]KCG-NH2; thioether N-14) | at nanomolar concentrations | 
CCCC[C@H]1C(=O)N(C)[C@@H](CCCC)C(=O)N[C@@H](CCCCN)C(=O)N[C@H](C(=O)NCC(N)=O)CSCC(=O)N[C@@H](Cc2ccc(O)cc2)C(=O)N(C)[C@@H](C)C(=O)N[C@@H](CC(N)=O)C(=O)N2CCC[C@H]2C(=O)N[C@@H](Cc2cnc[nH]2)C(=O)N[C@@H](CCC(=O)O)C(=O)N2C[C@H](O)C[C@H]2C(=O)N[C@@H](Cc2c[nH]c3ccccc23)C(=O)N[C@@H](CO)C(=O)N[C@@H](Cc2cn(CC(=O)O)c3ccccc23)C(=O)N1C [DK221, Cyclo-(-Ac-Tyr-NMeAla-Asn-Pro-His-Glu-Hyp-Trp-Ser-Trp(Carboxymethyl)-NMeNle-NMeNle-Lys-Cys-)-Gly-NH2, reference compound] ({CH2CO}-Y[NMeA]NPHE[Hyp]WS[Trp(1-CH2COOH)][NMeNle][NMeNle]KCG-NH2; thioether N-14) |  | 24 nM

Source: patent US20230271923A1, “IMAGING AND TARGETING PROGRAMMED DEATH LIGAND-1 (PD-LI) EXPRESSION” (The Johns Hopkins University, priority 2020, published 2023)
